Some entries share one result that the patent states for a list of compounds.
Tested on: tooth extraction sites
Experiment: Clinical healing of tooth extraction sites following dental surgery
Format: in vivo, patients
Conditions: collagen plug or sheet impregnated with agent placed in extraction site; normally 16 to 24 weeks without

Row | Compound | time until bone formation noted radiographically and/or with clinical examination at extraction site
1 | C[C@@H]1C[C@H]2[C@@H]3CCC4=CC(=O)C=C[C@]4(C)[C@@]3(F)[C@@H](O)C[C@]2(C)[C@@]1(O)C(=O)CO [Dexamethasone, dexamethasone] | 6-8 weeks
2 | COc1ccc2[nH]cc(CCNC(C)=O)c2c1 [Melatonin, melatonin] | 6-8 weeks
